Experimental data from paper PMC6769788.
For at least one entry, the source does not settle the construct or the ends of the probe.

Sequences of proteins named here, by UniProt entry; tags and fusion partners are left off.
UniProt P60843, whole entry: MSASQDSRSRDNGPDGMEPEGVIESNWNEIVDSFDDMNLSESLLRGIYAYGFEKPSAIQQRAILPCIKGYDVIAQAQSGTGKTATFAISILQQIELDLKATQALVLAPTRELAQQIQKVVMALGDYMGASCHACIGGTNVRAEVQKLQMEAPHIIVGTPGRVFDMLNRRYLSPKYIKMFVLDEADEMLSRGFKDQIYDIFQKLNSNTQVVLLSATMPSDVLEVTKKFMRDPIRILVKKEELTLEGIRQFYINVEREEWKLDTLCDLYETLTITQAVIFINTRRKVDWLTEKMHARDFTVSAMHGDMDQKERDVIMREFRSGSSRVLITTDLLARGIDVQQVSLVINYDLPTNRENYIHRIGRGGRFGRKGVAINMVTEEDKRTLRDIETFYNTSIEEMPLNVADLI

Target: eIF4A (UniProt P60843)
Test: binding assay
Conditions: Toeprinting: 40 mM Tris-OAc pH 7.5, 110 mM KCl, 1.7 mM Mg(OAc)2, 2 mM DTT, 0.25 mM spermidine, 0.4 mM GMP-PNP, 0.1 mM EDTA; 2 mM ATP:Mg or AMP-PNP:Mg; 40 nM mRNA; letters put together from the description

GGGAGACAAGAAUAAAACGCUCAAGGGGACCGCGCCCCACAUGUGAGUGAGGCCGAAACGUAGAUUCGACAGGAGGCUCACAACAGGCAGAUC [a4Aa20]
Kd: 40 nM
